In the supplement of paper PMC10849652:
Some of the results follow.

By UniProt entry, the sequences of proteins in these tests, tags left out. Where a name states a change or a piece, a line headed by the entry shows the natural chain unless it says otherwise.
UniProt Q9UJT1: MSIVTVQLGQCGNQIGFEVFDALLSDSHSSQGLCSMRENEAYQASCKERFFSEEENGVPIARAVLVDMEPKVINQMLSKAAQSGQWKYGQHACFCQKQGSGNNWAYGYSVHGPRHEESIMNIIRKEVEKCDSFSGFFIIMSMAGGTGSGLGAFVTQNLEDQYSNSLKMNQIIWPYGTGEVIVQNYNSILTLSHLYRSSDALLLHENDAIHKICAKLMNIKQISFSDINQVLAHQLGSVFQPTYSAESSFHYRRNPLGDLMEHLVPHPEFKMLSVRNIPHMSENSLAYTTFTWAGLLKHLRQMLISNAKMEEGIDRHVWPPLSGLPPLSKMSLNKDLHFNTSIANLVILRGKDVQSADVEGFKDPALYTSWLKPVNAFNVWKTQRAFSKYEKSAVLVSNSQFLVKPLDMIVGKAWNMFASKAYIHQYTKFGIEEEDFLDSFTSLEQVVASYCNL
UniProt Q9UJ04: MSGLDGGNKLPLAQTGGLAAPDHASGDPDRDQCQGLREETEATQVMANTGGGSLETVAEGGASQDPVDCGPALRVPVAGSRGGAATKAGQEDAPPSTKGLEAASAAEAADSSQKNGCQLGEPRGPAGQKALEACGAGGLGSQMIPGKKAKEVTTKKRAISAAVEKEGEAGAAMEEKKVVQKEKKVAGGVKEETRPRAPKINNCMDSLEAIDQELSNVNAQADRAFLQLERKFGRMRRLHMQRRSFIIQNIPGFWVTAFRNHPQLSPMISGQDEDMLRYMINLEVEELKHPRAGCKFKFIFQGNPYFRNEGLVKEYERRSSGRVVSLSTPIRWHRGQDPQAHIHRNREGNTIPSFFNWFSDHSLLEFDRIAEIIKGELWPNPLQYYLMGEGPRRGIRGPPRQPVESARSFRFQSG
UniProt Q8WUA8: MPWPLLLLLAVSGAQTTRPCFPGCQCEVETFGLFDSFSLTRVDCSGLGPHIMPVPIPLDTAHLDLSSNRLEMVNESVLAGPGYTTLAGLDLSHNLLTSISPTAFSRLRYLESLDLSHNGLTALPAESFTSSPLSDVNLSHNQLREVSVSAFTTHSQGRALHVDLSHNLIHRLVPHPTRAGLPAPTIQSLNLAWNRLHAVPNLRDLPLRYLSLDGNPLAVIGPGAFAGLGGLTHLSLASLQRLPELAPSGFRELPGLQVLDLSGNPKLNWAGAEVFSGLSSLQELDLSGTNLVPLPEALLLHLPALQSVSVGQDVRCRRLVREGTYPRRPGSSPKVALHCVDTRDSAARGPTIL
UniProt Q8N2K1: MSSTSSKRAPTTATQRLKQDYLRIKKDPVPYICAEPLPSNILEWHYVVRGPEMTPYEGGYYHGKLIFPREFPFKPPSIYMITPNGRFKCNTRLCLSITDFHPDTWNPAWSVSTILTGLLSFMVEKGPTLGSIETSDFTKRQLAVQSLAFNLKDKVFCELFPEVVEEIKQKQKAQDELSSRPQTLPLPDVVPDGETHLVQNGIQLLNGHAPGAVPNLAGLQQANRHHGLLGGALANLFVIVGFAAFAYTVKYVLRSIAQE
UniProt Q3B726, whole entry, looked up: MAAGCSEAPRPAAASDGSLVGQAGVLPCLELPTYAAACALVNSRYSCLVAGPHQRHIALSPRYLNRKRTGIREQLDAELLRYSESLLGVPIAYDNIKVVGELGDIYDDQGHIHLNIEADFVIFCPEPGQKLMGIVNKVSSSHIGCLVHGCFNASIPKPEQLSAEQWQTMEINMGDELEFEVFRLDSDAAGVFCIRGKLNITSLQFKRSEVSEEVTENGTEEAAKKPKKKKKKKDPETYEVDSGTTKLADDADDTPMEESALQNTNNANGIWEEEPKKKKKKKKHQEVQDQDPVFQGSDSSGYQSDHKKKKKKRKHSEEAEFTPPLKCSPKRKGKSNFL
UniProt Q9NX01: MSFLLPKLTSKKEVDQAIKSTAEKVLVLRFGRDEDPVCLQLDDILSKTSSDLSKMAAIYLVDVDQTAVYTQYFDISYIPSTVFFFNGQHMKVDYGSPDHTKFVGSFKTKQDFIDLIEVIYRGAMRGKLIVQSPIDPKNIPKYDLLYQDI
UniProt Q9H0U9: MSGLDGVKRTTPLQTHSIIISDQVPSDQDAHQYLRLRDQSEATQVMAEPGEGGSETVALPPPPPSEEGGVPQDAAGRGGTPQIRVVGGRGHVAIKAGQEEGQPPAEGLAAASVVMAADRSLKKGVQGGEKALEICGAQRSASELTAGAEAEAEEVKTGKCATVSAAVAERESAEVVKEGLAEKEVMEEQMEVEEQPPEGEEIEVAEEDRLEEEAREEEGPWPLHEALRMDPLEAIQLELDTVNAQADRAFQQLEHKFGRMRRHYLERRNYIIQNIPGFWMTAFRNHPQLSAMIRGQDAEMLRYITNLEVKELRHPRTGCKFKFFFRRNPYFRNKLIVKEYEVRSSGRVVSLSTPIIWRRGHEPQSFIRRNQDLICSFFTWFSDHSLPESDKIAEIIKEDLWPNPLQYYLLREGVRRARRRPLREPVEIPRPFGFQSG
UniProt Q96N46: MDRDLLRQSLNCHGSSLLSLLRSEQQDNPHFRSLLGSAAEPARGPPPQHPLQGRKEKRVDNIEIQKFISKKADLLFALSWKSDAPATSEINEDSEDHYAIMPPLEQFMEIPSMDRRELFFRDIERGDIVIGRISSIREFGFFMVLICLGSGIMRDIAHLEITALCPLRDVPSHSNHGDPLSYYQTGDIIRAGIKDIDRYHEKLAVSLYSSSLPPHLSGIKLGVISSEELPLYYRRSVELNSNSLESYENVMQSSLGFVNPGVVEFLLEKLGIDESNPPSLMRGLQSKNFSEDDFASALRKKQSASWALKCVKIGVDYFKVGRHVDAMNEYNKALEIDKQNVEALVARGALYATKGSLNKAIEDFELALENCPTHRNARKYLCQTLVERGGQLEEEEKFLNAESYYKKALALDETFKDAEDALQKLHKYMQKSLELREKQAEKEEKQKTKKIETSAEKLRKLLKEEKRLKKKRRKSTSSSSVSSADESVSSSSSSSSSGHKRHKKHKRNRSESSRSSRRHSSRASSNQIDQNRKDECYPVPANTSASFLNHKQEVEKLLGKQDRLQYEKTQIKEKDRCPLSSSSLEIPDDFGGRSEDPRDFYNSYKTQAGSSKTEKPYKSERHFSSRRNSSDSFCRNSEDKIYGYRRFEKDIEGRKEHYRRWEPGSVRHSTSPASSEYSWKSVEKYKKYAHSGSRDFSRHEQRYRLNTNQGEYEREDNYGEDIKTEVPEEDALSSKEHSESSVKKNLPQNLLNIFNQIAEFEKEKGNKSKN
UniProt P51668: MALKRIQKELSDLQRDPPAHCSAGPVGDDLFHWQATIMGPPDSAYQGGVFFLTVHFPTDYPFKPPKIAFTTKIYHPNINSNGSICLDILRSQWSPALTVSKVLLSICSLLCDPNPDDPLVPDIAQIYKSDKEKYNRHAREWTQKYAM
UniProt P33981: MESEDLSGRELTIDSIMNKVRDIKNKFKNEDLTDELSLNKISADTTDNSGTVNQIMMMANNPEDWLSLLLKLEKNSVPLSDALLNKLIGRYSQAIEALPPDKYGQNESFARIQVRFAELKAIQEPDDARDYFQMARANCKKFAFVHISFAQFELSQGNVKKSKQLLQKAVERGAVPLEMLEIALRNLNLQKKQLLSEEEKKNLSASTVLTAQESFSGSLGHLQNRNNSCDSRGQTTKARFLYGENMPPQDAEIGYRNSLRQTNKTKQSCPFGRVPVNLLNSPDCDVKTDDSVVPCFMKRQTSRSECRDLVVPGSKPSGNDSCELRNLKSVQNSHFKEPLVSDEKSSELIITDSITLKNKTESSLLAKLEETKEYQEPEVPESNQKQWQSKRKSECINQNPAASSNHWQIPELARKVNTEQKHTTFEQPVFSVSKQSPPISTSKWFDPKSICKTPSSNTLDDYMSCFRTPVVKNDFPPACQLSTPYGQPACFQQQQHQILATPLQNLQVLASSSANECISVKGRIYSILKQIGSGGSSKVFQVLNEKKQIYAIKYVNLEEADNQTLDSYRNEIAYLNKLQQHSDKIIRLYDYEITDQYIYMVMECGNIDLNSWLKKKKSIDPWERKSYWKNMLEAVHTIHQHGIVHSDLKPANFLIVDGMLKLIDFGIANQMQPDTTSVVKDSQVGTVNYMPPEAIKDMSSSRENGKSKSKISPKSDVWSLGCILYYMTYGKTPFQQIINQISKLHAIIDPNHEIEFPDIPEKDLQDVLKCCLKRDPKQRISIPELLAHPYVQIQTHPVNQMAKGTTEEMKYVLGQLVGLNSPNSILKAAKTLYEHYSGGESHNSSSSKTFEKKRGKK
UniProt Q96RR1: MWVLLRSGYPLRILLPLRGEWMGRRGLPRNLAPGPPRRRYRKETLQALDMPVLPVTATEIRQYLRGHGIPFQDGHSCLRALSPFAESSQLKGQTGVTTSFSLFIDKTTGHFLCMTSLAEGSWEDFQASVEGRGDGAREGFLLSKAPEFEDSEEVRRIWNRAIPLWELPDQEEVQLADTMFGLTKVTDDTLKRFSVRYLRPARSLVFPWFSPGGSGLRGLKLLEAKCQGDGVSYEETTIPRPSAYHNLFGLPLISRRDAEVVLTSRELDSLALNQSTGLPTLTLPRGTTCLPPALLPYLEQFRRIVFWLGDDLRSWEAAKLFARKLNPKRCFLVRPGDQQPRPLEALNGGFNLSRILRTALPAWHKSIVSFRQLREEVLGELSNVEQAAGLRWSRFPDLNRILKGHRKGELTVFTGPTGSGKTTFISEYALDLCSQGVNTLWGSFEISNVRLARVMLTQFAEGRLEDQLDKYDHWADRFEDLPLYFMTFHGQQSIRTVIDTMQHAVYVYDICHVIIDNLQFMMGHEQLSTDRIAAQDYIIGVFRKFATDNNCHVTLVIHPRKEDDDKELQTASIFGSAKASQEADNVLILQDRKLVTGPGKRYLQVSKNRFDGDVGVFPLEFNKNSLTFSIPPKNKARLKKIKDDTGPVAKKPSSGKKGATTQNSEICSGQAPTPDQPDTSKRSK
UniProt P29597: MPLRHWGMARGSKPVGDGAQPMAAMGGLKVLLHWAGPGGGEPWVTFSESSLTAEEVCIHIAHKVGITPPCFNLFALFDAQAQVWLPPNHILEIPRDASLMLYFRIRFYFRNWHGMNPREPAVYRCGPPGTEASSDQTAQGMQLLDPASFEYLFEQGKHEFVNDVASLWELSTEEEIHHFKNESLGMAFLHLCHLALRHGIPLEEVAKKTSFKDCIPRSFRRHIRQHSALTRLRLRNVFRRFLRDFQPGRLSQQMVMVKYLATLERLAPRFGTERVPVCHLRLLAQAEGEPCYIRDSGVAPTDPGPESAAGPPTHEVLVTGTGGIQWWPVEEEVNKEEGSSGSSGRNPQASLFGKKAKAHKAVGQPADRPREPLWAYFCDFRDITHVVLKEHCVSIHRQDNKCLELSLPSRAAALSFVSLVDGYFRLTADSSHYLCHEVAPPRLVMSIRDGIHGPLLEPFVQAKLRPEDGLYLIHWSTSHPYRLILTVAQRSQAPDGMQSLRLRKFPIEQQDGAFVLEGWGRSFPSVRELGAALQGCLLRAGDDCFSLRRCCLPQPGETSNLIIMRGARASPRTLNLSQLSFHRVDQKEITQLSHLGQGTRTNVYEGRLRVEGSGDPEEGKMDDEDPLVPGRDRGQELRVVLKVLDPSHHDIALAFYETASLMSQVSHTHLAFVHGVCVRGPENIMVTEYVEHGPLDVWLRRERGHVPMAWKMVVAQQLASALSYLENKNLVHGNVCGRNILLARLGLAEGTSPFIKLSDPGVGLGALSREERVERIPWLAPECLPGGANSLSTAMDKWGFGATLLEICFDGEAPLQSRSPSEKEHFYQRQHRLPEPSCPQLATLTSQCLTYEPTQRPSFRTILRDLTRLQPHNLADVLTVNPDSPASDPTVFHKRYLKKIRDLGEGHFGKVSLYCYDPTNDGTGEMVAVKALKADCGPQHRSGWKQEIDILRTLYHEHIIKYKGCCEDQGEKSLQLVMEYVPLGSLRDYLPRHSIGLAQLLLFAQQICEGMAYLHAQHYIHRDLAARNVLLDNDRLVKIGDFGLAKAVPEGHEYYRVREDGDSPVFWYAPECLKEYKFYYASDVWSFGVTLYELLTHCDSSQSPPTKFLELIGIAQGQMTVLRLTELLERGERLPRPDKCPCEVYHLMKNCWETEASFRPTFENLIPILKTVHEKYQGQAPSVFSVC
UniProt Q96FV3: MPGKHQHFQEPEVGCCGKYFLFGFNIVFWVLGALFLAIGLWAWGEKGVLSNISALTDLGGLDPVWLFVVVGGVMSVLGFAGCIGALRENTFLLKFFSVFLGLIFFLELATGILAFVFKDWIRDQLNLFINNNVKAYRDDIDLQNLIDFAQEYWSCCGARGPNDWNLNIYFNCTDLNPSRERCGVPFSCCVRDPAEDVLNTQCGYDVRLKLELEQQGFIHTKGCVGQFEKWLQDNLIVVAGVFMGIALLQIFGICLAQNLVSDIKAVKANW
UniProt Q96ET8: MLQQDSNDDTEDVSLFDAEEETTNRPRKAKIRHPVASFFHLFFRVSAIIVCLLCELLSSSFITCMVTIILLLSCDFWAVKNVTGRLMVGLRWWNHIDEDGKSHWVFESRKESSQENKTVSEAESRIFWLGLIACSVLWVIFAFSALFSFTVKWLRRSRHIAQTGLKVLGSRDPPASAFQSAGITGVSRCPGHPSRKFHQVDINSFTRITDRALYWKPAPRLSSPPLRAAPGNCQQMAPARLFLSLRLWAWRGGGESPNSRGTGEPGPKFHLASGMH

What was measured:
Assay in all cases: log2 fold change, soluble protein after heating vs DMSO (PISA); higher = thermal stabilisation; K562 cells, 10 uM, 30 min; active = over 0.2 and 3.5 SD of the protein, either way, in both replicates (recomputed)
[1] = compound: CS(=O)(=O)c1ccc(-c2cnc(N)c(C(=O)Nc3ccccc3)n2)cc1
Procedure, shortened: (§1)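 K562 cells at 2×10^6 cells/mL were exposed to 10 μM compound for 30 min, then aliquots were heated for 3 min across 48°C-58°C, pooled, and extracted in PBS containing 0.5% NP-40 at 4°C. The supernatant after 21,000xg for 90 min was taken as soluble protein and measured by TMTpro 16plex LC-MS/MS with channel sums equalised. Thermal stability is reported relative to control samples, with values from duplicates. Fold changes are given on a log2 scale.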

crizotinib = compound: C[C@@H](Oc1cc(-c2cnn(C3CCNCC3)c2)cnc1N)c1c(Cl)ccc(F)c1Cl [crizotinib]
Procedure, shortened: as §1

[2] = compound: C[C@H](C1=CC=C(C=C1)C(=O)NC2=C3C=CNC3=NC=C2)N
Procedure, shortened: as §1

duvelisib = compound: C[C@H](Nc1ncnc2nc[nH]c12)c1cc2cccc(Cl)c2c(=O)n1-c1ccccc1 [duvelisib]
Procedure, shortened: as §1

gandotinib = compound: Cc1cc(Nc2cc(CN3CCOCC3)c3nc(C)c(Cc4ccc(Cl)cc4F)n3n2)n[nH]1 [gandotinib]
Procedure, shortened: as §1

tozasertib = compound: Cc1cc(Nc2cc(N3CCN(C)CC3)nc(Sc3ccc(NC(=O)C4CC4)cc3)n2)n[nH]1 [tozasertib]
Procedure, shortened: as §1

[3] = compound: Cc1cc(SCc2sc(-c3ccc(C(F)(F)F)cc3)nc2C)ccc1OCC(=O)O
Procedure, shortened: as §1

doramapimod = compound: Cc1ccc(-n2nc(C(C)(C)C)cc2NC(=O)Nc2ccc(OCCN3CCOCC3)c3ccccc23)cc1 [doramapimod]
Procedure, shortened: as §1

ispinesib = compound: Cc1ccc(C(=O)N(CCCN)[C@@H](c2nc3cc(Cl)ccc3c(=O)n2Cc2ccccc2)C(C)C)cc1 [ispinesib]
Procedure, shortened: as §1

[4] = compound: C[C@@H]1COCCN1C2=NC(=NC(=C2)C3(CC3)S(=O)(=O)C)C4=C5C=CNC5=CC=C4
Procedure, shortened: as §1

Measured: log2 fold change

TTC13 (UniProt Q8NBP0)
inactive: [1] 0.085 | crizotinib -0.212 | [2] 0.034 | duvelisib 0 | gandotinib 0.142 | tozasertib 0.062 | [3] 0.041 | doramapimod 0.191 | ispinesib -0.143

TUBD1 (UniProt Q9UJT1)
inactive: [1] 0.072 | crizotinib -0.115 | doramapimod 0.215 | ispinesib -0.075

TSPYL4 (UniProt Q9UJ04)
inactive: crizotinib 0.054 | doramapimod -0.026

TTC37 (UniProt Q6PGP7)
inactive: crizotinib 0.121 | [4] -0.116 | doramapimod -0.444 | ispinesib -0.094

TUBB2B (UniProt Q9BVA1)
inactive: [1] 0.092 | crizotinib 0.165 | [2] 0.04 | duvelisib -0.116 | gandotinib 0.097 | tozasertib 0.048 | [3] 0.1 | doramapimod -0.013 | ispinesib -0.071

TYW5 (UniProt A2RUC4)
inactive: [4] 0.126 | gandotinib -0.115 | tozasertib -0.207 | ispinesib 0.033

TSKU (UniProt Q8WUA8)
inactive: [2] 0.09 | tozasertib -0.017

TUBB8 (UniProt Q3ZCM7)
inactive: [1] -0.165 | crizotinib 0.029 | duvelisib -0.02 | [3] -0.118 | doramapimod 0.023 | ispinesib 0.098

TYRO3 (UniProt Q06418)
inactive: [1] 0.208 | [4] -0.124 | doramapimod 0.045

UBE2J2 isoform 3 (UniProt Q8N2K1)
inactive: [1] 0.252 | [4] -0.076 | [2] -0.365 | gandotinib 0.028 | [3] -0.01

TWISTNB (UniProt Q3B726)
inactive: [1] 0.085 | [4] 0.087 | [2] -0.024 | duvelisib -0.072 | gandotinib -0.103 | tozasertib -0.136 | [3] 0.22

TTC5 (UniProt Q8N0Z6)
inactive: [1] -0.187 | duvelisib -0.149 | [3] 0.065 | ispinesib -0.153

TXNL4B (UniProt Q9NX01)
inactive: [1] 0.22 | crizotinib 0.309 | [2] 0.008 | gandotinib -0.024 | [3] 0.054 | doramapimod 0.037 | ispinesib -0.017

TTC26
inactive: ispinesib 0.105

TSPYL1 (UniProt Q9H0U9)
inactive: [2] 0.018

TSPAN13 (UniProt O95857)
inactive: [1] -0.055 | [4] 0.4 | [2] -0.17 | gandotinib -0.05 | [3] -0.124 | ispinesib -0.03

2 consecutive records out of the list so far:
TXNL4B (UniProt Q9NX01)
inactive: [1] 0.22 | crizotinib 0.309 | [2] 0.008 | gandotinib -0.024 | [3] 0.054 | doramapimod 0.037 | ispinesib -0.017

TTC26
inactive: ispinesib 0.105

Additional results follow:

UBAP2L (UniProt F8W726)
inactive: gandotinib -0.072

TTC7B isoform 2 (UniProt Q86TV6)
inactive: [1] 0.487 | crizotinib 0.008 | [2] 0.049 | duvelisib 0.13 | gandotinib -0.154 | tozasertib -0.029 | [3] 0.169 | doramapimod 0.021 | ispinesib 0.003

TTC14 (UniProt Q96N46)
inactive: [1] 0.117 | [2] -0.012 | tozasertib 0.037

UBE2G2 (UniProt P60604)
inactive: [1] 0.341 | crizotinib -0.214 | [2] -0.114 | duvelisib 0.205 | gandotinib 0.056 | tozasertib -0.04 | [3] 0.049 | doramapimod -0.02 | ispinesib -0.239

TUBA4A (UniProt C9JJQ8)
inactive: [1] 0.009 | crizotinib -0.019 | [2] -0.159 | [3] 0.108 | doramapimod -0.046

UBE2D1 (UniProt P51668)
inactive: [1] 0.062 | [2] -0.004 | gandotinib 0.047 | [3] 0.102 | ispinesib 0.056

TTK (UniProt P33981)
inactive: [4] -0.237 | ispinesib -0.53

UBE2M (UniProt M0QX69)
inactive: crizotinib -0.073 | doramapimod -0.004

TWNK (UniProt Q96RR1)
inactive: [4] -0.158 | tozasertib -0.199 | ispinesib -0.217

TYK2 (UniProt P29597)
inactive: [1] -0.022 | duvelisib 0.077 | [3] 0

TUBGCP5 (UniProt Q96RT8)
inactive: crizotinib -0.02 | [4] 0.043 | [2] 0.014 | gandotinib -0.076 | tozasertib -0.069 | doramapimod -0.013

TSPAN17 isoform 4 (UniProt Q96FV3)
inactive: [1] 0.205 | [4] -0.05

TSPAN4 (UniProt O14817)
inactive: tozasertib -0.03 | ispinesib 0.137

UBE2L5, A0A1B0GUS4
inactive: [2] -0.089 | tozasertib -0.297

TTC17 isoform 2 (UniProt Q96AE7)
inactive: crizotinib -0.031 | gandotinib 0.046 | doramapimod 0.028

TXNRD1 isoform 7 (UniProt Q16881)
inactive: [1] 0.075 | [4] -0.026 | gandotinib 0.125 | [3] -0.015

TSPAN3 (UniProt O60637)
inactive: [1] 0.018 | crizotinib -0.051 | [2] 0.13 | duvelisib 0.045 | tozasertib -0.156 | [3] 0.062 | doramapimod 0.089 | ispinesib -0.266

TUSC2 (UniProt O75896)
inactive: [1] 0.041 | crizotinib 0.027 | [4] 0.241 | doramapimod -0.056

TXNDC2 (UniProt Q86VQ3)
inactive: [1] 0.061 | duvelisib 0.27 | [3] -0.024 | ispinesib 0.014

U2AF1L5 (UniProt P0DN76)
inactive: crizotinib -0.105 | [3] 0.023 | doramapimod -0.1

TUBGCP4 (UniProt Q9UGJ1)
inactive: [1] 0.132 | crizotinib -0.071 | [2] 0.407 | duvelisib -0.064 | tozasertib 0.086 | [3] 0.475 | doramapimod 0.033 | ispinesib -0.011

TUBGCP6 (UniProt Q96RT7)
inactive: crizotinib -0.231 | doramapimod 0.081

TVP23C (UniProt Q96ET8)
inactive: [2] 0.03 | gandotinib -0.016 | [3] -0.092

TTC21B (UniProt Q7Z4L5)
inactive: duvelisib 0.11 | tozasertib -0.299 | [3] -0.206
